The list shows a part of the results. Many values rest on one well or one pass, so single values are uncertain.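 Primary human fetal astrocytes engulfed labelled rat cortical synaptosomes, measured as a red/green ratio corrected for calcein live-cell signal and scaled to the plate median. Toxicity meant calcein falling over 30%; decreased phagocytosis meant below 70% of median above 5 µM.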

The text below walks through data of the supplement of paper PMC10689618.

This experiment deals with Human fetal astrocytes. Put plainly: loss of total cells relative to no-compound high-control median (toxicity); higher = more toxic (fewer cells). To be noted: 5.56 µM; 24 h.
Consider `NC(=O)c1cccnc1`, for which the “loss of total cells” value came to 4.5%.
Take `C[C@H]1O[C@H](O[C@H]2[C@H](O)[C@@H](O)[C@@H](O[C@@H]([C@H](O)[C@@H](O)C=O)[C@H](O)CO)O[C@@H]2CO)[C@H](O)[C@@H](O)[C@@H]1N[C@H]1C=C(CO)[C@@H](O)[C@H](O)[C@H]1O`: the “loss of total cells” value was -13.7%.
Then `CCN(CC)CCOC(=O)C(c1ccccc1)c1ccccc1`, with -1.2%.
Then `N[C@@H](CSCSC[C@H](N)C(=O)O)C(=O)O`, with -3.7%.
As for `C=CC1=C(C)/C(=C/c2[nH]c(Cc3[nH]c(/C=C4\NC(=O)C(C)=C4C=C)c(C)c3CCC(=O)O)c(CCC(=O)O)c2C)NC1=O`, the figure is 3.7%; as for `C[C@]12CC[C@@H]3c4ccc(O)cc4CC[C@H]3[C@@H]1CC[C@@H]2OC(=O)CCC1CCCC1`, -12.5%.
Regarding `C[C@@H]1C(=O)O[C@H]2C[C@@]34[C@H]5C[C@@H](C(C)(C)C)[C@]36[C@@H](OC(=O)[C@@H]6O)O[C@@]4(C(=O)O5)[C@]21O`, the “loss of total cells” value was 3.6%.
Consider `CN(C)CCOC(c1ccc(Cl)cc1)c1ccccn1` (stereo not given), for which the “loss of total cells” value was -8.1%.
Then `COc1ccc(/C=C/C(=O)O)cc1OC`, with -13%.
Then `COc1ccc2c(c1)O[C@H]1c3ccc(OC)cc3OC[C@@H]21`, with -15.3%; and `CCCCC(CC)CN=C(N)N=C(N)NCCCCCCNC(N)=NC(N)=NCC(CC)CCCC` (stereo not given), with 9.5%; and `Cc1ncc(C[n+]2csc(CCO)c2C)c(N)n1`, with 2.5%.
Consider `O=C(/C=C/c1ccccc1)c1ccc(O[C@@H]2O[C@H](CO)[C@@H](O)[C@H](O)[C@H]2O)cc1O`, for which the “loss of total cells” value was -3.8%.
As for `COc1ccc(C(C)=O)c(O)c1`, the figure is -11.7%; as for `COc1c2ccoc2cc2oc(C)cc(=O)c12`, 7.3%.
